From the supplement of paper PMC11438910
The list shows a part of the results. The signal is at background level for most entries.

Tests used:
Experiment in all cases: fluorescence intensity of antibody binding to polysaccharide-coupled beads; higher = stronger binding
[1] = target: pneumococcal polysaccharide Pn25A
Method: (§1)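 Recombinant rhesus-murine chimeric IgG1 antibodies were tested against antigen-coupled MagPlex beads in a 96-plex Luminex direct immunoassay (dLIA). The beads carried pneumococcal capsular polysaccharides of 93 serotypes plus C-polysaccharides. Antibody was added at 0.1–12,500 ng/mL for 1 h, then PE anti-mouse IgG, and net MFI was read on a Bio-Plex 3D. Only the rhesus variable regions are printed; constant regions are murine IgG1/kappa/lambda, and the signal peptide is MGWSCIILFLVATATGVHS.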

[2] = target: pneumococcal polysaccharide Pn25F
Method: as §1

[3] = target: pneumococcal polysaccharide Pn27
Method: as §1

[4] = target: pneumococcal polysaccharide Pn28A
Method: as §1

[5] = target: pneumococcal polysaccharide Pn28F
Method: as §1

[6] = target: pneumococcal polysaccharide Pn29
Method: as §1

[7] = target: pneumococcal polysaccharide Pn3
Method: as §1

[8] = target: pneumococcal polysaccharide Pn31
Method: as §1

[9] = target: pneumococcal polysaccharide Pn32A
Method: as §1

[10] = target: pneumococcal polysaccharide Pn32F
Method: as §1

[11] = target: pneumococcal polysaccharide Pn33A
Method: as §1

[12] = target: pneumococcal polysaccharide Pn33B
Method: as §1

[13] = target: pneumococcal polysaccharide Pn33C
Method: as §1

[14] = target: pneumococcal polysaccharide Pn33D
Method: as §1

[15] = target: pneumococcal polysaccharide Pn33F
Method: as §1

[16] = target: pneumococcal polysaccharide Pn34
Method: as §1

[17] = target: pneumococcal polysaccharide Pn35A
Method: as §1

[18] = target: pneumococcal polysaccharide Pn35B
Method: as §1

[19] = target: pneumococcal polysaccharide Pn35C
Method: as §1

[20] = target: pneumococcal polysaccharide Pn35F
Method: as §1

[21] = target: pneumococcal polysaccharide Pn36
Method: as §1

[22] = target: pneumococcal polysaccharide Pn37
Method: as §1

[23] = target: pneumococcal polysaccharide Pn38
Method: as §1

[24] = antibody concentration 0.1 ng/mL
[25] = antibody concentration 0.534724 ng/mL
[26] = antibody concentration 2.8593 ng/mL
[27] = antibody concentration 15.2894 ng/mL
[28] = antibody concentration 81.7561 ng/mL
[29] = antibody concentration 437.17 ng/mL
[30] = antibody concentration 2337.65 ng/mL
[31] = antibody concentration 12500 ng/mL

B1: 4-99.5 (protein)
chain 1: QVQLQESGPGLVKPSETLSLTCAVSGYSISSGYYWGWIRQPPGKGLEYIGYISGSSGSPYYNPSLKSRVTISKDTSKNQFSLKLSSATAADTAVYYCARRQVGIGFDYWGQGVLVTVSS
chain 2: QAAPTQPPSVSGSPGQSVTISCTGTSSDIGYYNAVSWYQQHPGKAPKLMIYEVSKRPSGVSDRFSGSKSGNTASLTISGLQAEDEADYYCSSYAGSNTYIFGAGTRLTVL
[1]; [24]
  fluorescence intensity: 23.8 MFI
[1]; [25]
  fluorescence intensity: 25.5 MFI
[1]; [26]
  fluorescence intensity: 25 MFI
[1]; [27]
  fluorescence intensity: 24.5 MFI
[1]; [28]
  fluorescence intensity: 25.5 MFI
[1]; [29]
  fluorescence intensity: 25.5 MFI
[1]; [30]
  fluorescence intensity: 28.5 MFI
[1]; [31]
  fluorescence intensity: 30.5 MFI
[2]; [24]
  fluorescence intensity: 31.5 MFI
[2]; [25]
  fluorescence intensity: 31.5 MFI
[2]; [26]
  fluorescence intensity: 31.5 MFI
[2]; [27]
  fluorescence intensity: 32.8 MFI
[2]; [28]
  fluorescence intensity: 31 MFI
[2]; [29]
  fluorescence intensity: 31.5 MFI
[2]; [30]
  fluorescence intensity: 31.5 MFI
[2]; [31]
  fluorescence intensity: 37 MFI
[3]; [24]
  fluorescence intensity: 17 MFI
[3]; [25]
  fluorescence intensity: 16 MFI
[3]; [26]
  fluorescence intensity: 17 MFI
[3]; [27]
  fluorescence intensity: 17.2 MFI
[3]; [28]
  fluorescence intensity: 17.5 MFI
[3]; [29]
  fluorescence intensity: 19 MFI
[3]; [30]
  fluorescence intensity: 19.5 MFI
[3]; [31]
  fluorescence intensity: 42 MFI
[4]; [24]
  fluorescence intensity: 27.8 MFI
[4]; [25]
  fluorescence intensity: 28 MFI
[4]; [26]
  fluorescence intensity: 28.5 MFI
[4]; [27]
  fluorescence intensity: 27.2 MFI
[4]; [28]
  fluorescence intensity: 28.2 MFI
[4]; [29]
  fluorescence intensity: 28.5 MFI
[4]; [30]
  fluorescence intensity: 29 MFI
[4]; [31]
  fluorescence intensity: 32.8 MFI
[5]; [24]
  fluorescence intensity: 29 MFI
[5]; [25]
  fluorescence intensity: 29.5 MFI
[5]; [26]
  fluorescence intensity: 30.5 MFI
[5]; [27]
  fluorescence intensity: 29.8 MFI
[5]; [28]
  fluorescence intensity: 30 MFI
[5]; [29]
  fluorescence intensity: 31.5 MFI
[5]; [30]
  fluorescence intensity: 30.8 MFI
[5]; [31]
  fluorescence intensity: 40.8 MFI
[6]; [24]
  fluorescence intensity: 16 MFI
[6]; [25]
  fluorescence intensity: 17.2 MFI
[6]; [26]
  fluorescence intensity: 17 MFI
[6]; [27]
  fluorescence intensity: 16.5 MFI
[6]; [28]
  fluorescence intensity: 18.2 MFI
[6]; [29]
  fluorescence intensity: 17 MFI
[6]; [30]
  fluorescence intensity: 19 MFI
[6]; [31]
  fluorescence intensity: 31 MFI
[7]; [24]
  fluorescence intensity: 14 MFI
[7]; [25]
  fluorescence intensity: 18.8 MFI
[7]; [26]
  fluorescence intensity: 39 MFI
[7]; [27]
  fluorescence intensity: 165 MFI
[7]; [28]
  fluorescence intensity: 718 MFI
[7]; [29]
  fluorescence intensity: 3200 MFI
[7]; [30]
  fluorescence intensity: 11000 MFI
[7]; [31]
  fluorescence intensity: 16500 MFI
[8]; [24]
  fluorescence intensity: 16 MFI
[8]; [25]
  fluorescence intensity: 16 MFI
[8]; [26]
  fluorescence intensity: 14.5 MFI
[8]; [27]
  fluorescence intensity: 14.5 MFI
[8]; [28]
  fluorescence intensity: 14.2 MFI
[8]; [29]
  fluorescence intensity: 15 MFI
[8]; [30]
  fluorescence intensity: 14.8 MFI
[8]; [31]
  fluorescence intensity: 27 MFI
[9]; [24]
  fluorescence intensity: 18 MFI
[9]; [25]
  fluorescence intensity: 18.2 MFI
[9]; [26]
  fluorescence intensity: 18 MFI
[9]; [27]
  fluorescence intensity: 19 MFI
[9]; [28]
  fluorescence intensity: 19 MFI
[9]; [29]
  fluorescence intensity: 18 MFI
[9]; [30]
  fluorescence intensity: 20 MFI
[9]; [31]
  fluorescence intensity: 29 MFI
[10]; [24]
  fluorescence intensity: 28.5 MFI
[10]; [25]
  fluorescence intensity: 29.5 MFI
[10]; [26]
  fluorescence intensity: 29 MFI
[10]; [27]
  fluorescence intensity: 27.5 MFI
[10]; [28]
  fluorescence intensity: 30.2 MFI
[10]; [29]
  fluorescence intensity: 30 MFI
[10]; [30]
  fluorescence intensity: 32 MFI
[10]; [31]
  fluorescence intensity: 44.2 MFI
[11]; [24]
  fluorescence intensity: 18.5 MFI
[11]; [25]
  fluorescence intensity: 18 MFI
[11]; [26]
  fluorescence intensity: 17 MFI
[11]; [27]
  fluorescence intensity: 17.5 MFI
[11]; [28]
  fluorescence intensity: 19 MFI
[11]; [29]
  fluorescence intensity: 21 MFI
[11]; [30]
  fluorescence intensity: 27.5 MFI
[11]; [31]
  fluorescence intensity: 130 MFI
[12]; [24]
  fluorescence intensity: 19 MFI
[12]; [25]
  fluorescence intensity: 18 MFI
[12]; [26]
  fluorescence intensity: 18.5 MFI
[12]; [27]
  fluorescence intensity: 19 MFI
[12]; [28]
  fluorescence intensity: 18 MFI
[12]; [29]
  fluorescence intensity: 19.5 MFI
[12]; [30]
  fluorescence intensity: 18.5 MFI
[12]; [31]
  fluorescence intensity: 22 MFI
[13]; [24]
  fluorescence intensity: 19 MFI
[13]; [25]
  fluorescence intensity: 20 MFI
[13]; [26]
  fluorescence intensity: 19.5 MFI
[13]; [27]
  fluorescence intensity: 19 MFI
[13]; [28]
  fluorescence intensity: 19.2 MFI
[13]; [29]
  fluorescence intensity: 19.5 MFI
[13]; [30]
  fluorescence intensity: 20.5 MFI
[13]; [31]
  fluorescence intensity: 30.5 MFI
[14]; [24]
  fluorescence intensity: 17 MFI
[14]; [25]
  fluorescence intensity: 15 MFI
[14]; [26]
  fluorescence intensity: 15.5 MFI
[14]; [27]
  fluorescence intensity: 17.8 MFI
[14]; [28]
  fluorescence intensity: 16.2 MFI
[14]; [29]
  fluorescence intensity: 16 MFI
[14]; [30]
  fluorescence intensity: 16.5 MFI
[14]; [31]
  fluorescence intensity: 21.5 MFI
[15]; [24]
  fluorescence intensity: 13 MFI
[15]; [25]
  fluorescence intensity: 13.2 MFI
[15]; [26]
  fluorescence intensity: 13 MFI
[15]; [27]
  fluorescence intensity: 14 MFI
[15]; [28]
  fluorescence intensity: 13.5 MFI
[15]; [29]
  fluorescence intensity: 14 MFI
[15]; [30]
  fluorescence intensity: 18 MFI
[15]; [31]
  fluorescence intensity: 41.5 MFI
[16]; [24]
  fluorescence intensity: 14 MFI
[16]; [25]
  fluorescence intensity: 14 MFI
[16]; [26]
  fluorescence intensity: 14 MFI
[16]; [27]
  fluorescence intensity: 15 MFI
[16]; [28]
  fluorescence intensity: 15 MFI
[16]; [29]
  fluorescence intensity: 16 MFI
[16]; [30]
  fluorescence intensity: 14.5 MFI
[16]; [31]
  fluorescence intensity: 17 MFI
[17]; [24]
  fluorescence intensity: 18 MFI
[17]; [25]
  fluorescence intensity: 17 MFI
[17]; [26]
  fluorescence intensity: 16.5 MFI
[17]; [27]
  fluorescence intensity: 16.8 MFI
[17]; [28]
  fluorescence intensity: 16.5 MFI
[17]; [29]
  fluorescence intensity: 17.5 MFI
[17]; [30]
  fluorescence intensity: 19.2 MFI
[17]; [31]
  fluorescence intensity: 37.5 MFI
[18]; [24]
  fluorescence intensity: 18.8 MFI
[18]; [25]
  fluorescence intensity: 19.5 MFI
[18]; [26]
  fluorescence intensity: 18 MFI
[18]; [27]
  fluorescence intensity: 18 MFI
[18]; [28]
  fluorescence intensity: 18 MFI
[18]; [29]
  fluorescence intensity: 18 MFI
[18]; [30]
  fluorescence intensity: 19 MFI
[18]; [31]
  fluorescence intensity: 33 MFI
[19]; [24]
  fluorescence intensity: 21.5 MFI
[19]; [25]
  fluorescence intensity: 21 MFI
[19]; [26]
  fluorescence intensity: 20.5 MFI
[19]; [27]
  fluorescence intensity: 20 MFI
[19]; [28]
  fluorescence intensity: 20 MFI
[19]; [29]
  fluorescence intensity: 20.5 MFI
[19]; [30]
  fluorescence intensity: 20.5 MFI
[19]; [31]
  fluorescence intensity: 25 MFI
[20]; [24]
  fluorescence intensity: 24 MFI
[20]; [25]
  fluorescence intensity: 19 MFI
[20]; [26]
  fluorescence intensity: 17.5 MFI
[20]; [27]
  fluorescence intensity: 19.8 MFI
[20]; [28]
  fluorescence intensity: 20.2 MFI
[20]; [29]
  fluorescence intensity: 20.2 MFI
[20]; [30]
  fluorescence intensity: 21 MFI
[20]; [31]
  fluorescence intensity: 24 MFI
[21]; [24]
  fluorescence intensity: 16.2 MFI
[21]; [25]
  fluorescence intensity: 16.5 MFI
[21]; [26]
  fluorescence intensity: 16 MFI
[21]; [27]
  fluorescence intensity: 16.2 MFI
[21]; [28]
  fluorescence intensity: 16 MFI
[21]; [29]
  fluorescence intensity: 17.5 MFI
[21]; [30]
  fluorescence intensity: 18 MFI
[21]; [31]
  fluorescence intensity: 25.2 MFI
[22]; [24]
  fluorescence intensity: 26.5 MFI
[22]; [25]
  fluorescence intensity: 28.5 MFI
[22]; [26]
  fluorescence intensity: 26 MFI
[22]; [27]
  fluorescence intensity: 27.2 MFI
[22]; [28]
  fluorescence intensity: 26.5 MFI
[22]; [29]
  fluorescence intensity: 26 MFI
[22]; [30]
  fluorescence intensity: 29.8 MFI
[22]; [31]
  fluorescence intensity: 80.2 MFI
[23]; [24]
  fluorescence intensity: 27.8 MFI
[23]; [25]
  fluorescence intensity: 26 MFI
[23]; [26]
  fluorescence intensity: 25 MFI
[23]; [27]
  fluorescence intensity: 25.5 MFI
